Screen size: about 580,000 compounds; about 6,100 (1.1%) were called active. Inconclusive results, whose numbers are uncertain, are shown with a selection of clear calls. Calls follow the shape of the dose curve; as a rule, active = well fitted inhibition curve with a large enough effect; inconclusive = small, poorly fitted or top-dose-only effect, or another doubt; inactive = no such curve, though single readings can be large or run the other way. A potency beside an inconclusive call is a rough fit, not a confirmed value.
Target: Polyunsaturated fatty acid lipoxygenase ALOX12 (Homo sapiens) (UniProt P18054)
Assay: Primary qHTS assay for inhibitors of human arachidonate 12S-lipoxygenase (ALOX12): Round 2
Settings: purified 12hLO, xylenol orange hydroperoxide absorbance; series mostly up to 108 µM
Method in brief: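 Purified human 12hLO at 150 nM in 25 mM Hepes, 0.01% Triton X-100, pH 7.0, preincubated 15 min at room temperature with compound. Reaction started with 40 uM arachidonic acid, 30 min at room temperature. Hydroperoxide measured by Fe-xylenol orange, 573/405 nm absorbance ratio.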
Potency is read from the fitted curve at half-maximal effect.

The chains behind the UniProt entries cited, without tags or fusion partners. Where a name states a change or a piece, a line headed by the entry shows the natural chain unless it says otherwise.
UniProt P18054: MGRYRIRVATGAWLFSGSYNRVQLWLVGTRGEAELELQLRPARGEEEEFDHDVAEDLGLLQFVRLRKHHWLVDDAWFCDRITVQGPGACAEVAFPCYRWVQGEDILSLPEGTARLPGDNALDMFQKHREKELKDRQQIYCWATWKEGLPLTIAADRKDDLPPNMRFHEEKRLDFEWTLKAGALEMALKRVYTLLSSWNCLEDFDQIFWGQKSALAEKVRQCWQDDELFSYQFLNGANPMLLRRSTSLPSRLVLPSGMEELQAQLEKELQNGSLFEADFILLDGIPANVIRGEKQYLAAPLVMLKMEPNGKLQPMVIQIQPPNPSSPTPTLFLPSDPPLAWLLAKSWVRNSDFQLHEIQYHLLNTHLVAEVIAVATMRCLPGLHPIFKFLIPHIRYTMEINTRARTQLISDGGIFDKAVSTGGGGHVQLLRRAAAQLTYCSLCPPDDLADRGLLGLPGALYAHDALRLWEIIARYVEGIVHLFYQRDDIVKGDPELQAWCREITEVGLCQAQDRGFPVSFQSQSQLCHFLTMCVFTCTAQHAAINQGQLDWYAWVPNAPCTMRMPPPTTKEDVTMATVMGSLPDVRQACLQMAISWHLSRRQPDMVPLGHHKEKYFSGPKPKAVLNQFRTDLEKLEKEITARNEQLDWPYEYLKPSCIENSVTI

Row | Structure (SMILES) | Potency
1 | CCOc1ccc(C(=O)CCN2CCOCC2)cc1 | inconclusive: 35.5 µM [inhibitor, partial curve, poor fit]
2 | COc1ccccc1N1C(=O)C2C(C(=O)c3ccccc3)=NN(c3ccccc3)C2C1=O (configuration not stated) | inconclusive: 89.1 µM [inhibitor, partial curve, poor fit]
3 | O=C(CCc1c[nH]c2ccccc12)Nc1ccc(F)c(F)c1 | inconclusive: 44.7 µM [inhibitor, single point]
4 | Cc1cc(C(=O)N[C@H](C)c2onc(-c3cccnc3)c2C(=O)O)nn1C | inconclusive: 11.2 µM [inhibitor, full curve]
5 | c1ccc(C(O[C@H]2CCCN(CCc3ccc4c(c3)OCO4)C2)c2ccccc2)cc1 | inconclusive: 31.6 µM [inhibitor, single point]
6 | CN1c2cc(C(=O)N3CCN(c4cccc(Cl)c4)CC3)ccc2C(=O)N2CCCCC21 (configuration not stated) | inactive
7 | CCn1c(SCC(=O)NC2CCCCC2)nc2ccccc2c1=O | inconclusive: 50.1 µM [inhibitor, partial curve, poor fit]
8 | CCC(C)NCCOCCOc1ccc(C)cc1Br (configuration not stated) | inconclusive: 0.501 µM [inhibitor, full curve, poor fit]
9 | CCOC(=O)C1=C(C)OC(N)=C(C#N)C1c1cncc(-c2ccc(F)cc2)c1 (configuration not stated) | inconclusive: 50.1 µM [inhibitor, partial curve, poor fit]
10 | CCOc1ccc(S(=O)(=O)NN=C2CCN(C(C)=O)CC2)cc1 | inactive
11 | Cc1ccc(S(=O)(=O)N2CCN(C(=O)C3CC(=O)N(c4ccc5c(c4)OCCO5)C3)CC2)cc1 (configuration not stated) | inactive
12 | O=C(C1=C(O)C(=O)N(c2ncccn2)C1c1cccs1)c1ccco1 (configuration not stated) | inconclusive: 0.0891 µM [inhibitor, full curve, poor fit]
13 | O=C1NC(Cc2ccccc2)c2nc3ccc(F)cc3c(=O)n2-c2ccccc21 (configuration not stated) | inconclusive: 31.6 µM [inhibitor, partial curve, poor fit]
14 | COc1ccc(CNc2cc(-c3cccc(NS(C)(=O)=O)c3)ncn2)c(OC)c1 | inconclusive: 44.7 µM [inhibitor, partial curve]
15 | Cc1nc(-c2ccc(Cl)cc2)sc1C(=O)NC1C=CS(=O)(=O)C1 (configuration not stated) | inconclusive: 126 µM [inhibitor, single point]
16 | COc1ccc(C2=Nc3ccccc3OC2)cc1 | active: 44.7 µM
17 | O=C(COC(=O)c1ccccn1)c1ccc([N+](=O)[O-])cc1 | inconclusive: 0.631 µM [inhibitor, full curve, poor fit]
18 | OCC1(Cc2ccccc2)CCN(Cc2cnn(-c3ccccc3F)c2)CC1 | inactive
19 | CCc1ccccc1NC(=O)CSc1ncccc1C(=O)O | inconclusive: 50.1 µM [inhibitor, partial curve, poor fit]
20 | O=C(CSc1nnc(Cc2cccs2)n1Cc1ccco1)Nc1ccc(Cl)cc1Cl | inconclusive: 79.4 µM [inhibitor, single point]
21 | C[S+](=O)([O-])N1CCC2(CC(=O)Nc3ccccc3N2)C1 (configuration not stated) | inconclusive: 100 µM [inhibitor, partial curve, poor fit]
22 | CCc1ccc(NC(=O)N2CCCC(Cn3cnc4cccnc43)C2)cc1 (configuration not stated) | inactive
23 | CC/C(=N/NC(=O)c1ccc2c(c1)OCO2)c1ccccc1O | inactive

Fetched one by one from the entries so far, 3 records:
Row | Structure (SMILES) | Potency
21 | C[S+](=O)([O-])N1CCC2(CC(=O)Nc3ccccc3N2)C1 (configuration not stated) | inconclusive: 100 µM [inhibitor, partial curve, poor fit]
23 | CC/C(=N/NC(=O)c1ccc2c(c1)OCO2)c1ccccc1O | inactive
19 | CCc1ccccc1NC(=O)CSc1ncccc1C(=O)O | inconclusive: 50.1 µM [inhibitor, partial curve, poor fit]

(continued)

Row | Structure (SMILES) | Potency
24 | CC1(C)Cc2c(cnn2-c2ccc(F)cc2)C(NC(=O)CCC(F)(F)F)C1 (configuration not stated) | inactive
25 | COc1cc(OC)cc(C(=O)Nc2ccc(N3CCN(C(=O)c4cccs4)CC3)cc2)c1 | inconclusive: 50.1 µM [inhibitor, partial curve, poor fit]
26 | CCCCCOC(=O)CSc1nc2c(c(=O)[nH]c(=O)n2C)n1CCC | inconclusive: 44.7 µM [inhibitor, partial curve, poor fit]
27 | CC12CCC(=O)N1C(C(=O)O)Cc1c2[nH]c2ccccc12 (configuration not stated) | inactive
28 | COC(=O)c1ccc(-c2sc3nc(N4CCOCC4)c4c(c3c2N)CC(C)(C)OC4)o1 | inactive
29 | CC(C)CNc1ncnc2c1CN(C1CNC1)C(=O)CN2C | inconclusive: 2.51 µM [inhibitor, partial curve]
30 | CCOc1cc(CN2CCN(C(=O)c3cccc4ccccc34)CC2)ccc1OC | inconclusive: 0.891 µM [inhibitor, full curve]
31 | CCCN1C(=O)/C(=C/c2c(NCCCOCC)nc3c(C)cccn3c2=O)SC1=S | inactive
32 | O=C(C[C@H]1NC(=O)c2ccccc2NC1=O)Nc1nc(-c2cccs2)cs1 | inconclusive: 28.2 µM [inhibitor, full curve, poor fit]
33 | CC1OC(OCC2OC(Oc3c(-c4ccc(O)cc4)oc4cc(O)cc(O)c4c3=O)C(O)C(O)C2O)C(O)C(O)C1O (configuration not stated) | inconclusive: 50.1 µM [inhibitor, partial curve, poor fit]
34 | Cc1ccc2c(=O)n3c(nc2c1)C(Cc1ccc(O)cc1)NC(=O)c1cc2ccccc2cc1-3 (configuration not stated) | inactive
35 | COc1ccc(OC)c(C2N(c3ccccn3)C(=O)C3CCCN32)c1 (configuration not stated) | inconclusive: 31.6 µM [inhibitor, partial curve, poor fit]
36 | CCNC(=O)N(C)C[C@H]1N[C@@](CC)(C(=O)OC)[C@H]2C(=O)N(Cc3ccccc3)C(=O)[C@@H]12 | inconclusive: 44.7 µM [inhibitor, partial curve, poor fit]
37 | CCCCC(=O)N(Cc1nc2sc(C)c(C)c2c(=O)[nH]1)C1CCCC1 | inactive
38 | COC(=O)[C@]1(C)N[C@H](CN(C)C(C)=O)[C@@H]2C(=O)N(C)C(=O)[C@@H]21 | inconclusive: 79.4 µM [inhibitor, partial curve, poor fit]
39 | CCOC(=O)c1c(C)nc2ccccc2c1C | inconclusive: 35.5 µM [inhibitor, single point]
40 | CC1=C/C(=N\NC(=S)Nc2ccccc2F)CC1 | inconclusive: 100 µM [inhibitor, single point]
41 | CCCCn1nnnc1C1(C)CCC(=O)N1CCCN1CCOCC1 (configuration not stated) | inconclusive: 44.7 µM [inhibitor, partial curve, poor fit]
42 | COc1cc(/C=C/C(=O)O)ccc1OS(=O)(=O)c1ccc(C)cc1 | inconclusive: 50.1 µM [inhibitor, partial curve, poor fit]
43 | COc1ccc(OC)c(C(C)NC(=O)CCc2c(C)c3ccc(OC)cc3oc2=O)c1 (configuration not stated) | inactive
44 | Cc1nnc(NC(=O)CCc2ncc(-c3ccccc3)o2)s1 | inactive
45 | CCc1ccc(S(=O)(=O)N2CCCC(N3CCN(c4ccc(OC)cc4)CC3)C2)cc1 (configuration not stated) | inconclusive: 112 µM [inhibitor, single point]
46 | CCCCCCc1ccc(/C(C)=C\C(=O)O)cc1 | inactive

Row | Structure (SMILES) | Potency
47 | O=C(O)C(CO)NS(=O)(=O)c1ccc(Br)cc1 (configuration not stated) | inconclusive: 35.5 µM [inhibitor, partial curve, poor fit]
48 | C/C(=N\Nc1ccc(F)cc1F)c1ccc(Br)s1 | active: 31.6 µM
49 | N#CCCN1CCN(c2ccc(C(=O)O)cc2NS(=O)(=O)c2ccc(F)cc2)CC1 | inconclusive: 12.6 µM [inhibitor, full curve, poor fit]
50 | CN(C)c1ccc(/C=C2\CCCCC2=O)cc1 | inconclusive: 44.7 µM [inhibitor, partial curve, poor fit]
51 | Cc1ccccc1NC(=O)c1c(NC(=O)c2ccncc2)sc2c1CCC(C(C)(C)C)C2 (configuration not stated) | inconclusive: 39.8 µM [inhibitor, partial curve, poor fit]
52 | COc1ccccc1NC(=O)C1=C(C)Nc2nc(-c3ccco3)nn2C1c1ccccc1 (configuration not stated) | inactive
53 | Cc1nn(CC(=O)Nc2ccc(I)cc2)c(=O)c2ccccc12 | inconclusive: 0.316 µM [inhibitor, full curve, poor fit]
54 | Cc1cccc(NC(=O)Oc2ccc(Cl)c3cccnc23)c1 | active: 39.8 µM
55 | Cc1cc(C)cc(CCC(=O)N2CCN(c3ccc(C#N)cn3)CC2)c1 | inactive
56 | O=C(NCCC1CCCCN1S(=O)(=O)c1ccc(Cl)cc1)C(=O)NCc1ccncc1 (configuration not stated) | inactive
57 | O=c1c2ccccc2nc(/C=C/c2c[nH]c3ccccc23)n1CCO | inconclusive: 112 µM [inhibitor, single point]
58 | CC(C)Sc1ccccc1C(=O)O | inactive
59 | COc1ccc(N2N=NN(C(C)C)C2=C(Cl)c2nnnn2-c2ccc(OC)cc2)cc1 | inconclusive: 63.1 µM [inhibitor, partial curve, poor fit]
60 | CCn1cc(CNC(=O)c2cc(COc3ccc(F)cc3Cl)on2)cn1 | inactive
61 | CCOc1ccc2nc(N3CCC(C(=O)NCCc4ccc(OC)cc4OC)CC3)sc2c1 | inconclusive: 2.82 µM [inhibitor, partial curve, poor fit]
62 | O=C(NCc1ccncc1)C1CN(Cc2cccnc2)CC12CCOCC2 (configuration not stated) | inconclusive: 14.1 µM [inhibitor, partial curve]
63 | S=C(NCc1ccc(Cl)cc1)NCc1cccs1 | inconclusive: 50.1 µM [inhibitor, partial curve, poor fit]
64 | CCOC(=O)CC1=C(C(=O)OCC)C(c2cccnc2)C(C#N)=C(N)O1 (configuration not stated) | inactive
65 | CCN1c2cc(C(=O)Nc3ccccc3C(=O)OC)ccc2C(=O)N2CCCCCC21 (configuration not stated) | inconclusive: 44.7 µM [inhibitor, partial curve, poor fit]
66 | Cc1cc(C)c2cc(C#N)c(N3CCCC3)nc2c1 | inconclusive: 12.6 µM [inhibitor, partial curve, poor fit]
67 | Cc1ccccc1Cc1n[nH]c(=S)n1N | inconclusive: 14.1 µM [inhibitor, full curve]
